Data as given in PubChem BioAssay AID1259425 (University of Nebraska Medical Center, 2018).
In all, the deposit lists about 14,000 reagents; shown is a random part of them. The numbers tell different reagents against one gene apart. The record does not give: the time to read-out.

- Purpose: 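Find knockdowns that reproduce the gene expression pattern seen when KSR1 is lost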 (primary screen)
- Cell system: HCT116 human colon cancer cells
- Knock-down reagent: siRNA pool against human genes, 50 nM siRNA
- Measured: 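After 50 nM siRNA pool, branched-DNA assay measures six marker transcripts per well, minus blank, normalised to the geometric mean of two housekeeping transcripts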
- Direction: BNIP3L mRNA: higher = more BNIP3L transcript after knockdown; NDRG1 mRNA: higher = more NDRG1 transcript after knockdown; BNIP3 mRNA: higher = more BNIP3 transcript after knockdown; ALDOC mRNA: higher = more ALDOC transcript after knockdown; ACSL5 mRNA: higher = more ACSL5 transcript after knockdown

The first 4 entries, to show the layout:
Target gene | reagent | BNIP3L mRNA, set 1 | NDRG1 mRNA, set 1 | BNIP3 mRNA, set 1 | ALDOC mRNA, set 1 | ACSL5 mRNA, set 1
F2RL2 | 1 | 0.12 | 0.283 | 0.395 | 0.0382 | 0.297
JPH4 | 1 | 0.0804 | 0.0603 | 0.177 | 0.0323 | 0.132
R3HCC1L | 1 | 0.0802 | 0.216 | 0.302 | 0.0326 | 0.155
PHKA2 | 1 | 0.115 | 0.0354 | 0.31 | 0.00644 | 0.126

Results, from the start:
Target gene | reagent | BNIP3L mRNA, set 1 | NDRG1 mRNA, set 1 | BNIP3 mRNA, set 1 | ALDOC mRNA, set 1 | ACSL5 mRNA, set 1
F2RL2 | 1 | 0.12 | 0.283 | 0.395 | 0.0382 | 0.297
JPH4 | 1 | 0.0804 | 0.0603 | 0.177 | 0.0323 | 0.132
R3HCC1L | 1 | 0.0802 | 0.216 | 0.302 | 0.0326 | 0.155
PHKA2 | 1 | 0.115 | 0.0354 | 0.31 | 0.00644 | 0.126
VN1R10P | 1 | 0.0946 | 0.277 | 0.286 | 0.0278 | 0.196
LPAR6 | 1 | 0.266 | 0.56 | 0.772 | 0.0904 | 0.322
KIF27 | 1 | 0.08 | 0.528 | 0.338 | 0.0213 | 0.231
JMJD1C | 1 | 0.0634 | 0.106 | 0.198 | 0.0227 | 0.107
WFDC2 | 1 | 0.132 | 0.112 | 0.395 | 0.0576 | 0.0402
SETDB2 | 1 | 0.112 | 0.231 | 0.34 | 0.0192 | 0.151
CCDC191 | 1 | 0.0519 | 0.471 | 0.212 | 0.0182 | 0.238
DPT | 1 | 0.109 | 0.538 | 0.34 | 0.0274 | 0.0699
CEP76 | 1 | 0.109 | 0.204 | 0.242 | 0.06 | 0.0952
NPY5R | 1 | 0.172 | 0.195 | 0.3 | 0.0393 | 0.379
CFL2 | 1 | 0.107 | 0.21 | 0.418 | 0.0451 | 0.178
EML2 | 1 | 0.179 | 0.138 | 0.39 | 0.0522 | 0.248
CXCR3 | 1 | 0.154 | 0.392 | 0.276 | 0.0566 | 0.105
VCP | 1 | 0.478 | 1.29 | 0.338 | 0.0202 | 0.127
RFC3 | 1 | 0.12 | 0.4 | 0.349 | 0.0356 | 0.218
COXFA4L3 | 1 | 0.28 | 0.171 | 0.217 | 0.0556 | 0.401
MID1IP1 | 1 | 0.0659 | 0.251 | 0.299 | 0.0409 | 0.189
UGT1A3 | 1 | 0.0746 | 0.0764 | 0.158 | 0.0145 | 0.102
TET2 | 1 | 0.128 | 0.194 | 0.495 | 0.0523 | 0.147
TET2 | 2 | 0.0571 | 0.124 | 0.201 | 0.0154 | 0.25
NPFF | 1 | 0.133 | 0.359 | 0.306 | 0.0155 | 0.154
OR1D5 | 1 | 0.088 | 0.358 | 0.482 | 0.0668 | 0.137
PRO2964 (retired record) | 1 | 0.0982 | 0.166 | 0.254 | 0.0306 | 0.237
TRIB1 | 1 | 0.107 | 0.152 | 0.365 | 0.00585 | 0.185
SP2 | 1 | 0.212 | 1.84 | 0.343 | 0.0805 | 0.0738
NIM1K | 1 | 0.0857 | 0.0593 | 0.264 | 0.0054 | 0.183
IFNA10 | 1 | 0.0793 | 0.136 | 0.296 | 0.0169 | 0.118
PYGO1 | 1 | 0.164 | 0.448 | 0.406 | 0.0412 | 0.227
AKAP7 | 1 | 0.0663 | 0.0749 | 0.229 | 0.00693 | 0.357
MYOT | 1 | 0.222 | 0.189 | 0.376 | 0.0717 | 0.109
